Results taken from paper PMC10152663, “SEC14-GOLD protein PATELLIN2 binds IRON-REGULATED TRANSPORTER1 linking root iron uptake to vitamin E” (Plant Physiology, 2022).
Results are given in words; binding and its absence hold for the method and conditions named. Binding seen in cells or lysates may run through a third protein. Some results given as binding are weak or reduced against the parent protein; the word gives no strength. Sequences can lack the tags named with a protein.

Target: T1, IRT1-GFP, green fluorescent protein-tagged IRON-REGULATED TRANSPORTER1 (Arabidopsis thaliana) (UniProt Q38856)
T1 sequence: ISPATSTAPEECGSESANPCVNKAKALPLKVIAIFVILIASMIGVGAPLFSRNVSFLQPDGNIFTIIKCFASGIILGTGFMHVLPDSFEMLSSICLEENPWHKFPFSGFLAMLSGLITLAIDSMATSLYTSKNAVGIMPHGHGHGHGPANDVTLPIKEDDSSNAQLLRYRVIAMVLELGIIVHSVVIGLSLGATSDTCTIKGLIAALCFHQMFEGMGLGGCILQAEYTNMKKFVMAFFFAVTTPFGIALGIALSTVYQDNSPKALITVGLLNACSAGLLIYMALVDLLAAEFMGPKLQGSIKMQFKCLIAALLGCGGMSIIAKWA
Assay: co-IP; anti-GFP beads (ChromoTek) on protein extracts of transiently transformed N. benthamiana leaves expressing IRT1-GFP and PATL2-HA3; immunoblot

B1: PATL2-HA3, triple hemagglutinin-tagged PATELLIN2 (transient expression in N. benthamiana) (protein, UniProt Q56ZI2 1-683)
chain: MAQEEIQKPTASVPVVKEETPAPVKEVEVPVTTEKAVAAPAPEATEEKVVSEVAVPETEVTAVKEEEVATGKEILQSESFKEEGYLASELQEAEKNALAELKELVREALNKREFTAPPPPPAPVKEEKVEEKKTEETEEKKEEVKTEEKSLEAETKEEEKSAAPATVETKKEEILAAPAPIVAETKKEETPVAPAPVETKPAAPVVAETKKEEILPAAPVTTETKVEEKVVPVETTPAAPVTTETKEEEKAAPVTTETKEEEKAAPGETKKEEKATASTQVKRASKFIKDIFVSVTTSEKKKEEEKPAVVTIEKAFAADQEEETKTVEAVEESIVSITLPETAAYVEPEEVSIWGIPLLEDERSDVILLKFLRARDFKVKEAFTMLKNTVQWRKENKIDDLVSEDLEGSEFEKLVFTHGVDKQGHVVIYSSYGEFQNKEIFSDKEKLSKFLKWRIQFQEKCVRSLDFSPEAKSSFVFVSDFRNAPGLGQRALWQFIKRAVKQFEDNYPEFVAKELFINVPWWYIPYYKTFGSIITSPRTRSKMVLSGPSKSAETIFKYVAPEVVPVKYGGLSKDSPFTVEDGVTEAVVKSTSKYTIDLPATEGSTLSWELRVLGADVSYGAQFEPSNEASYTVIVSKNRKVGLTDEPVITDSFKASEAGKVVITIDNQTFKKKKVLYRSKTQA
binding: binds
